Results are given as percent effect. The record does not define 0% and 100%; most values in the screen are far below 50% and negative numbers occur (in some assays of this library far below -100). This is an unselected part of the compounds tested. Two or more numbers in one place are separate tests of the same structure; such repeats can differ widely. A dash means the value is not listed here; it may have been measured.

T. brucei: 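Whole-parasite assay of Trypanosoma brucei over 72 hours; the read-out is not stated. Tested at 30 µM. The record gives no direction; compounds that gave an IC50 in retests scored well above the rest, so higher reads as stronger inhibition. Values scatter widely below zero; nearly all retest evidence comes from the higher of the two concentrations used. Size under these conditions: about 64,000 compounds, about 940 of them at 50% or above in at least one test.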
Leishmania in macrophages: 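Cell assay of Leishmania donovani living inside macrophages; the read-out is not stated. Compounds at 30 µM. The record gives no direction; compounds that gave an IC50 in retests scored well above the rest, so higher reads as stronger inhibition. Size under these conditions: about 69,000 compounds, about 1,000 of them at 50% or above in at least one test.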

Compound,T. brucei,Leishmania in macrophages
O=C(NCCc1coc(-c2ccc(F)cc2)n1)NC1CCC(O)CC1 (centres unmarked),-16.25,3.618
CN1CCN(C(=O)CCC(=O)c2cccs2)Cc2ccccc21,-1.568,-0.9952
COc1cccc(-c2nc(C)c(C(=O)N[C@@H](CCSC)C(=O)O)s2)c1,-41.8,-3.803
COc1c(C2CCCN2Cc2nnc(C3CC3)o2)c(C)nn1C (centres unmarked),-0.1166,0.99
CC(=O)Nc1nc(C(=O)N2CCCC(c3cc(C)[nH]n3)C2)cs1 (centres unmarked),16.48,-14.6
Cc1nnc(N2CCCC3(CN(Cc4nccs4)CCO3)C2)o1.O=C(O)C(F)(F)F.O=C(O)C(F)(F)F (centres unmarked),-51.46,-17.15
COC(=O)N1CC2(CCNCC2)c2cc(Cl)ccc21.Cl,-8.221,30.65
CN(CC1CCCN1C)c1nccc(C2CCCC2)n1 (centres unmarked),-19.82,13.58
CCn1c(C)cc(C(=O)N2CCCC(n3ccnc3C)C2)c1C (centres unmarked),-8.008,-13.92
CN1[C@H](CO)C[C@H](CNCc2ccc(CO)o2)[C@@H]1c1ccccc1F,12.33,8.358
CCN1CCc2c(c(COC)nn2C)C1,-10.64,7.838
O=C1CC(NS(=O)(=O)c2ccccc2)CN1Cc1ccccc1 (centres unmarked),5.048,-0.07585
N#CC1(C(=O)N2CCN(Cc3cscn3)CC2)CCCC1,-88.57,0.2104
Cc1ccc(OCc2nc(CNCCn3cccn3)cs2)cc1,-7.86,5.182
O=C(c1csc(-c2cnccn2)n1)N1CCCC1Cn1cccn1 (centres unmarked),-19.43,19.59
NC(=O)C1CCCN(C(=O)c2ccc(-n3ccnc3)cc2)C1 (centres unmarked),-2.277,27.61
COc1ccc(C(=O)N2CCC(Oc3ccccc3)(C(=O)O)CC2)o1,-29.63,-4.781
Cc1noc(C(C)N2CCN(CCN3CCCC3=O)CC2)n1 (centres unmarked),-6.101,31.59
Nc1cnc(-c2ccc(F)cc2Cl)cn1,-146.4,13.92
O=C(Cn1c(=O)oc2ccccc21)N1Cc2cncnc2C1,14.26,8.603 & 8.014
O=C(O)C(F)(F)F.[H][C@@]12CCN(CCc3ccccc3)C[C@]1([H])[C@H](C(=O)N(C)C)CCO2,13.41,32.01
CNC(=O)C1CCN(C(=O)NCCc2ccc(Cl)s2)CC1,-1.478,9.845
CC(CNC(=O)N(C)Cc1ccco1)N1CCc2sccc2C1 (centres unmarked),-34.7,21.19
CC(O)CNCc1ccccc1C(F)(F)F.Cl (centres unmarked),-0.1776,2.3
COCCN1CCC(NCc2c(C)nn(C)c2N(C)C)CC1,-78.29,-16.72
O=C(Cc1cccc(F)c1F)NS(=O)(=O)c1ccc(Cl)cn1,-31.23,-169.3
Cc1nc(C)n(C2CCCN(C(=O)c3ccc(NC4CC4)nc3)C2)n1 (centres unmarked),56.19,12.62
CN(CCn1ccnc1-c1ccccn1)S(C)(=O)=O,-17.47,-9.262
CCc1nc(C2CCCN(C(=O)c3ccc(O)nc3)C2)no1 (centres unmarked),-,-2.91
Cn1cnc2c1CCN(C(C(=O)N1CCCCC1)c1ccccc1)C2 (centres unmarked),5.313,-1.128
CC(O)CNC(=O)NCCCN1CCN(c2ncccn2)CC1 (centres unmarked),-5.616,27.58
[H][C@]12CCCCN1CCC[C@@]2(O)CN(CC)Cc1noc(CC(C)C)n1,-,-27.45
CN(c1ccc(CNC(=O)c2c[nH]c(=O)c(Cl)c2)cc1)C1CCCCC1,-12.79,30.08
O=S(=O)(NCC1CCN(c2cnccn2)CC1)c1c(F)cccc1F,14.68,3.356
CC(C)c1nnc(CNC2CCCN(Cc3noc(C4CC4)n3)C2)o1 (centres unmarked),-,-1.772
O=C(CC1OCCc2ccccc21)NCCn1cccc1 (centres unmarked),-12.73,-14.77
O=C(c1cc2cccc(F)c2[nH]1)N1C[C@@H](O)[C@H](N2CCOCC2)C1,-7.548,-25.01
Cc1nnc(CN2C[C@H](NC(=O)C3CCOCC3)[C@@H](C(C)C)C2)s1,-6.912,-6.977
CN(C)S(=O)(=O)N1CCC(Cn2cccn2)CC1,-21.64,-4.278
Cc1cccc(NC(=O)N2Cc3c(CN(C)C)nn(C)c3C2)c1,-,7.679
Cc1cc(N2CCCCCC2)n2nc(C)c(C)c2n1,-8.965,49.13
Cc1cc(F)c(C(C(=O)O)N2CCN(Cc3ccccn3)CC2)cc1Cl (centres unmarked),0.7402,5.04
NC(=O)COc1ccc(CNCc2c(F)cccc2F)cc1,14.21,-1.739
CCn1cc(NC(=O)NCC(c2ccc(OC)cc2)N(C)C)cn1 (centres unmarked),11.06,26.03
Cc1cccc(C2(CNC(=O)c3ccnc(N(C)C)c3)CCOCC2)c1,14.88,-6.569
COC(=O)c1cccc(S(=O)(=O)NC(=O)COC2CCCC2)c1,-6.43,-0.3864
COc1ccc(S(=O)(=O)NC(=O)c2cscn2)cc1C,-15,2.575
CC(C)OCCOCc1cccc(NC(=O)NCc2cnn(C)c2)c1,-18.96,-26.74
O=C1c2cnc(N3CCC(O)CC3)nc2CN1Cc1cccc(F)c1,-71.36,-14.46
CC(=O)Nc1nc(C(=O)N2CCCCC2Cn2cc(C)cn2)cs1 (centres unmarked),-,8.16
COCCN1CCC12CCN(C(=O)c1ccc3[nH]ccc3c1)C2 (centres unmarked),30.31,13.98
CCOc1ccnc(N2CCN(C(=O)C(C)(C)C#N)CC2)n1,-9.102,-8.844
COc1ccccc1CNC(Cc1cccs1)c1nc(C)c(C)s1.Cl (centres unmarked),-26.23,4.1 & 6.795
COc1ccc(CCn2cnc(C#N)n2)cc1,-10.84,29.6
CC(NC(=O)c1ccoc1)C(=O)N(C)Cc1ccsc1 (centres unmarked),-16.42,13.32
Cc1cc(-c2cnc(NC3CCCC3)nc2-c2ccc(C)o2)on1,59.7,-72.55
Cc1noc(CCCNC(=O)C2CSCN2C(=O)C(C)(C)C)n1 (centres unmarked),-128.5,-7.28
O=C(NC1CC1)N1CCc2ccc(=O)n(Cc3cccnc3)c2CC1.O=C(O)C(F)(F)F,-34.38,2.092 & -54.94
COCc1csc(NC(=O)N2CCC(Cc3cnn(C)c3)C2)n1 (centres unmarked),10.39,20.91
Cc1noc(CN(C)Cc2ccc3c(c2)OCO3)n1,-15.27,12.19
O=C(CNC1CCc2ncnn2C1)NCCc1cccs1 (centres unmarked),-48.15,21.28
CC1CCC(NC(=O)NCC(C)(C)CCS(C)(=O)=O)CC1 (centres unmarked),3.787,2.323
CC(CNS(N)(=O)=O)Oc1cccc(Cl)c1 (centres unmarked),-29.05,5.132
Cc1ccc2c(n1)N(CCn1cccn1)CCN(C1CCOCC1)C2.O=C(O)C(F)(F)F.O=C(O)C(F)(F)F,-49.06,-2.584
c1ccc(Cn2ccnc2CN2CCOC(Cn3cccn3)C2)cc1 (centres unmarked),16.88,0.7918
COC1CCN(C(=O)Nc2cc(C(F)(F)F)c[nH]c2=O)CC1,-,1.187
Cc1cc(CN(C)Cc2cc3c(cc2OC(F)F)OCO3)on1,-15.2,10.21
CC(C)N1CCC(Cn2cc(C(N)=O)cn2)CC1,-3.014,11.92
O=C(CSc1ccc2c(c1)OCCO2)NS(=O)(=O)c1ccccc1Cl,-31.11,10.33

From ChEMBL document CHEMBL3988442, “University of Dundee, Small-Polar-MMV Screening Library” (2021).